Test results from the supplement of paper PMC10849652.
The other results are listed elsewhere or left out.

Amino acid sequences for entries named in this document (tags omitted). A change or cut given only in a name is not applied to a line headed by its entry.
UniProt Q9H0V9: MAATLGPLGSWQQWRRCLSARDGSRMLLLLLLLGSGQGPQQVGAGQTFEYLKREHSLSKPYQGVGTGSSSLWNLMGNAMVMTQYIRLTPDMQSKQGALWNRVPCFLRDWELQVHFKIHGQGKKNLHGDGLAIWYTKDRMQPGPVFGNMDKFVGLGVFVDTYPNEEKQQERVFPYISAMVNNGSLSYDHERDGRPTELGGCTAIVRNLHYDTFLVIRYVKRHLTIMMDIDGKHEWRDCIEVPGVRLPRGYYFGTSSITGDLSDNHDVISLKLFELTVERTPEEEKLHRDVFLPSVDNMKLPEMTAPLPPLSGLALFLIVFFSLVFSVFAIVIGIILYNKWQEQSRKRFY
UniProt Q6IAA8, whole entry, looked up: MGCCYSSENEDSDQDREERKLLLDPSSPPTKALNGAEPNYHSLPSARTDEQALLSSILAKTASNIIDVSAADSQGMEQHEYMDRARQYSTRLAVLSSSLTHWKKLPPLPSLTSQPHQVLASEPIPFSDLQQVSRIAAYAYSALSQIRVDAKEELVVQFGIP
UniProt P01130: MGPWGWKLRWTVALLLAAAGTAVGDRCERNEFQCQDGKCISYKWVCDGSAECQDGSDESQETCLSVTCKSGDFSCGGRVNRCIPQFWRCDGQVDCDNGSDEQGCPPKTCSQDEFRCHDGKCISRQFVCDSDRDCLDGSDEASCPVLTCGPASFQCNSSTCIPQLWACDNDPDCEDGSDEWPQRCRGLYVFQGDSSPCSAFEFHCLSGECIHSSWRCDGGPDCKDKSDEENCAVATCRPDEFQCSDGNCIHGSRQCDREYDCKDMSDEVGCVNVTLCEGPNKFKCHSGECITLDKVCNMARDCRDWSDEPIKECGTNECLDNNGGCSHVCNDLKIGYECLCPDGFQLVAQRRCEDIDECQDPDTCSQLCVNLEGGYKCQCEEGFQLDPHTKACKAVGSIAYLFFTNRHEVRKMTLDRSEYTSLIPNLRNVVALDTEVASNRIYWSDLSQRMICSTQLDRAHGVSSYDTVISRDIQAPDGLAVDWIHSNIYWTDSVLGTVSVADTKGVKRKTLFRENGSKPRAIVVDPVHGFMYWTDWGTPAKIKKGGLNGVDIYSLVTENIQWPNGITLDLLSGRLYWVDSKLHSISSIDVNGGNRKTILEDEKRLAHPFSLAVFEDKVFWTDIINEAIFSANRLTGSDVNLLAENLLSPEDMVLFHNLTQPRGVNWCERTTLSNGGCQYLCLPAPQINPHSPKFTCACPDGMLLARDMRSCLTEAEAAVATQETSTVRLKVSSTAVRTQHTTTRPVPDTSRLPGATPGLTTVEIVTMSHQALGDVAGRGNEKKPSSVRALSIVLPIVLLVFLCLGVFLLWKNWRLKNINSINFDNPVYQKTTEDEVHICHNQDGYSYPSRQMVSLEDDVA
UniProt Q8TCA0: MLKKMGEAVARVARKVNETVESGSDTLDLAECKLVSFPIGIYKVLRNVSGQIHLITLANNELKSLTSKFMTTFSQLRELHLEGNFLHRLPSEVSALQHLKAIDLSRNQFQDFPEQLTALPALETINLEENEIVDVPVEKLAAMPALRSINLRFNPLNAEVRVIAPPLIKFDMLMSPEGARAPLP
UniProt P13796: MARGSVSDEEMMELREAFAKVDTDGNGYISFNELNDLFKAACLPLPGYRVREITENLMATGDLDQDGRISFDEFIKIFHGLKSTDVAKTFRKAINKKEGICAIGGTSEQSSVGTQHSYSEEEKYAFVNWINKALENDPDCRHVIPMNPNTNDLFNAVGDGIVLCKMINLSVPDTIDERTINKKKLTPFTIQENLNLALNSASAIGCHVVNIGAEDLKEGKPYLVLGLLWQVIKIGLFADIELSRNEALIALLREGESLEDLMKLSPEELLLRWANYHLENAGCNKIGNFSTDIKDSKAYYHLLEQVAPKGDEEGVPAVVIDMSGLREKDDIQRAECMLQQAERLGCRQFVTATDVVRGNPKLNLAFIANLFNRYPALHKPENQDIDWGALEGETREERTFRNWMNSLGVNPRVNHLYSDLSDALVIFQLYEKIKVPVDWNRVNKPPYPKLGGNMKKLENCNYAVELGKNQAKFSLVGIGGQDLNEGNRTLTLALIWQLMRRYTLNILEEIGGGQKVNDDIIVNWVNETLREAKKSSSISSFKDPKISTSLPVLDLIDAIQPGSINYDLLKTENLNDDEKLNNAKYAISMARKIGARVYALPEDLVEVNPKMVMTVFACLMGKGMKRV
UniProt O95214: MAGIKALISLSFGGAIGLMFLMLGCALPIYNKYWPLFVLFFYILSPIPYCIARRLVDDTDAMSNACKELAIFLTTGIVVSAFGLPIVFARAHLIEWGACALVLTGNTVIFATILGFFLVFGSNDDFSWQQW
UniProt P28838: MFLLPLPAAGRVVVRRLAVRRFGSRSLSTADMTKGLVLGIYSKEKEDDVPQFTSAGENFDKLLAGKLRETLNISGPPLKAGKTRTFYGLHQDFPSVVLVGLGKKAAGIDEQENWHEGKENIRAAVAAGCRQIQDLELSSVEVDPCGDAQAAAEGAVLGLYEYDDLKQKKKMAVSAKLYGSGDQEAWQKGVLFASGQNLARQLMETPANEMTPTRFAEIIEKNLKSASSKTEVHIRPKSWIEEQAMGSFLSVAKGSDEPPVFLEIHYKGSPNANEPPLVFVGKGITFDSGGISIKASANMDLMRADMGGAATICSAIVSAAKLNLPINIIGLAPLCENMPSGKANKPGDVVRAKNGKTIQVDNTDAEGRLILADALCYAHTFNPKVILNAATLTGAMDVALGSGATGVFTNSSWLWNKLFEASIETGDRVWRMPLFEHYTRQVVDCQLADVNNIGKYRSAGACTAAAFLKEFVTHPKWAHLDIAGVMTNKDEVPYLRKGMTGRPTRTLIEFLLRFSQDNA
UniProt Q9UIC8: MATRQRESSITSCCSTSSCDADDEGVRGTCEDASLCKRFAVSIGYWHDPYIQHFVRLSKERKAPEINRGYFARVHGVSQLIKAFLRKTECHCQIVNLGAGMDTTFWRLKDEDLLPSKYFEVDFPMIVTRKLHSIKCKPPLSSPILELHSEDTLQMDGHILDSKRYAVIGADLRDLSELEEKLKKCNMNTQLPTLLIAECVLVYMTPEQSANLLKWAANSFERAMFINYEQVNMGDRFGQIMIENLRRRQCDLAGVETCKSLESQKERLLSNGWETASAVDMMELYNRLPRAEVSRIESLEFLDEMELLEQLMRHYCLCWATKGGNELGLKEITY
UniProt Q16719: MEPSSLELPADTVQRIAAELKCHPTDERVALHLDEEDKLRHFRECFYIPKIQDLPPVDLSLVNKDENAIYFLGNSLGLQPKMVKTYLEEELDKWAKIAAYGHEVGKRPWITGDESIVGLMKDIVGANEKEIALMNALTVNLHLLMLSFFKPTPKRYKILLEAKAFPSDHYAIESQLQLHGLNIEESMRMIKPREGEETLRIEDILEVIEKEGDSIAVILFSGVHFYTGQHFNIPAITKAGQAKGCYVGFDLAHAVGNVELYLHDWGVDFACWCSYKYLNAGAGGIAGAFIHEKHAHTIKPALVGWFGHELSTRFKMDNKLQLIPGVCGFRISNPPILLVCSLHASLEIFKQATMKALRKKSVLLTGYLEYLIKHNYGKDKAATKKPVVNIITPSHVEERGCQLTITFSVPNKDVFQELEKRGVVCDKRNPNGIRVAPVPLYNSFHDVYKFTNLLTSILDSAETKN
UniProt Q9NT99: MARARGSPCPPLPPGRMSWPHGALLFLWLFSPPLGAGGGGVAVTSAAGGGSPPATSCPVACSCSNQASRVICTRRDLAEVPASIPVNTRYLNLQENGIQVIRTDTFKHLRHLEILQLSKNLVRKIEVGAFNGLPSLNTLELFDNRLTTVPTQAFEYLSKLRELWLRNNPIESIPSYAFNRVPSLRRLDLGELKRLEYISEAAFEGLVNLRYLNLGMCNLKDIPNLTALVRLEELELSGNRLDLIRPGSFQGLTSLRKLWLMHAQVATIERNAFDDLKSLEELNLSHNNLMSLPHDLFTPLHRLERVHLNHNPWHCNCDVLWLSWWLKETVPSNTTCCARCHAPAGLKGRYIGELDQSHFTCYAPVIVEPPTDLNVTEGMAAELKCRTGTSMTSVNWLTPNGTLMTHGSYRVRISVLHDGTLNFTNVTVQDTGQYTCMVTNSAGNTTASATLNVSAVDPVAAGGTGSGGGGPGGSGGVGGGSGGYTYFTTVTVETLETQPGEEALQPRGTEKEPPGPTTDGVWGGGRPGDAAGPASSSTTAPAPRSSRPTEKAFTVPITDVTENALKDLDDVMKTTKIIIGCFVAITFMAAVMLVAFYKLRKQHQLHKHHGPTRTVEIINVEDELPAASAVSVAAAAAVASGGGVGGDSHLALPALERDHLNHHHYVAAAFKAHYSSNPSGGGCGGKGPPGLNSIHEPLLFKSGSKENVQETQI
UniProt Q9NUP9: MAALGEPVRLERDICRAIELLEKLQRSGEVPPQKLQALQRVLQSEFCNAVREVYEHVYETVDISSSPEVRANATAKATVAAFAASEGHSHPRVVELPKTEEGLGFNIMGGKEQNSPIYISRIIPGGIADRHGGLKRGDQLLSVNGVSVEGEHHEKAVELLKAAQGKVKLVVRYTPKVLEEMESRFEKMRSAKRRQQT
UniProt P83111: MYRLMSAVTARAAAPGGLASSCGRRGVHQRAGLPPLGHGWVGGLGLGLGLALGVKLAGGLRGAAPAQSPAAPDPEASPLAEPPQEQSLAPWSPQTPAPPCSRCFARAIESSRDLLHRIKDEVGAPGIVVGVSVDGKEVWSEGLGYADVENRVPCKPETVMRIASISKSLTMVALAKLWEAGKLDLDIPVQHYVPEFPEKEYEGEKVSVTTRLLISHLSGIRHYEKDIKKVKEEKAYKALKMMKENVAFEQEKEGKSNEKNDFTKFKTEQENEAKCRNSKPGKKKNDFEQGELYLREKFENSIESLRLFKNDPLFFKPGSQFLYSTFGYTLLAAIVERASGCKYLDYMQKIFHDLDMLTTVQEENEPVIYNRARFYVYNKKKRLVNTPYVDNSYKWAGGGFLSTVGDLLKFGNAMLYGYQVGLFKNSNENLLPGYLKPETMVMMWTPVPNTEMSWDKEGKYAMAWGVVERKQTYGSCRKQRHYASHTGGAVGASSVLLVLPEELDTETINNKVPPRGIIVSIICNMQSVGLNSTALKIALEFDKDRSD
UniProt Q9UHA4, whole entry, looked up: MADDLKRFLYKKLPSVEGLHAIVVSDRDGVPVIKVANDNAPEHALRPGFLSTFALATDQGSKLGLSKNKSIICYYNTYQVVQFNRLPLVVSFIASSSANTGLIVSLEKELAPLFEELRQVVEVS
UniProt Q86UP2: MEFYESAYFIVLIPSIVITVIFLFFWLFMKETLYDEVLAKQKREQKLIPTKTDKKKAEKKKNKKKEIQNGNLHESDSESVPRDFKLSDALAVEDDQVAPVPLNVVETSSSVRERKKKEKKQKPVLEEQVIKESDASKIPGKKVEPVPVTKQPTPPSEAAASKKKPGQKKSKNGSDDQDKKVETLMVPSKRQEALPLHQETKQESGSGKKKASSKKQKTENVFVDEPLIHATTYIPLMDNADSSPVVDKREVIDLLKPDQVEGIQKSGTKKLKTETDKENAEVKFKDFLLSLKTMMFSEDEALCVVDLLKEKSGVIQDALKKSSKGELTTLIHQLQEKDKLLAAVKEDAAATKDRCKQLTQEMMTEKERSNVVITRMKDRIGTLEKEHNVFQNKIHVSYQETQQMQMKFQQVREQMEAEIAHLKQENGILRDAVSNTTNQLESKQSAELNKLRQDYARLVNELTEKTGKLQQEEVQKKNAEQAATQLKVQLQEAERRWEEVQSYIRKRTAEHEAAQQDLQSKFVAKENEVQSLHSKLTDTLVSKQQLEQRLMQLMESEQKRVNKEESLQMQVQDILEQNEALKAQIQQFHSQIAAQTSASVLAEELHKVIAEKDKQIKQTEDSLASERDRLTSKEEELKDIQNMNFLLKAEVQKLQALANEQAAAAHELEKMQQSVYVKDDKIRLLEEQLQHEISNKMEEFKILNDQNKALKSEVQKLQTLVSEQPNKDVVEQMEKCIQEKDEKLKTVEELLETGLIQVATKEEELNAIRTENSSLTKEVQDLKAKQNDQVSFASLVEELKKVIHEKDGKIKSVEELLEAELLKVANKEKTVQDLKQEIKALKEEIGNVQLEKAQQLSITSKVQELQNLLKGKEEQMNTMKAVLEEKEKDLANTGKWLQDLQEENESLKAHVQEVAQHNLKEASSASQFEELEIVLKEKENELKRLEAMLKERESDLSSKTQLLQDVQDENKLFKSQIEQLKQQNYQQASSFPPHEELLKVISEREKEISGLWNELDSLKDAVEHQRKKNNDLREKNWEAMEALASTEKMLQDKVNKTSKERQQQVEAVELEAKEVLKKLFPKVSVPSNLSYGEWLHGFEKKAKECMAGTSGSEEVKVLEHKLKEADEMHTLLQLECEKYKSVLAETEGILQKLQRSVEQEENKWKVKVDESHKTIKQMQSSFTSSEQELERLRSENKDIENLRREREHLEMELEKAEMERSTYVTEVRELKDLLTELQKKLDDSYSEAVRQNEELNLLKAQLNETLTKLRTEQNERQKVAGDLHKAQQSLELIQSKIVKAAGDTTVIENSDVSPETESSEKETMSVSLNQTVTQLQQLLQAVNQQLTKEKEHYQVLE

Tests used:
Experiment in all cases: log2 fold change, soluble protein after heating vs DMSO (PISA); higher = thermal stabilisation; K562 cells, 10 uM, 30 min; active = over 0.2 and 3.5 SD of the protein, either way, in both replicates (recomputed)
[1] = compound: C1=CC=C(C=C1)[C@H](COC2=CC3=C(C=C2)NC(=O)N3)NC(=O)C4=CC=CN(C4=O)CC5=CC(=C(C=C5)F)F
Procedure, shortened: (§1)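 K562 cells at 2×10^6 cells/mL were exposed to 10 μM compound for 30 min, then aliquots were heated for 3 min across 48°C-58°C, pooled, and extracted in PBS containing 0.5% NP-40 at 4°C. The supernatant after 21,000xg for 90 min was taken as soluble protein and measured by TMTpro 16plex LC-MS/MS with channel sums equalised. Thermal stability is reported relative to control samples, with values from duplicates. Fold changes are given on a log2 scale.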

[2] = compound: CC1=C(SC2=C1C(=N[C@H](C3=NN=C(N32)C)CC(=O)N)C4=CC=C(C=C4)Cl)C
Procedure, shortened: as §1

[3] = compound: CC1=C2C(=CC=C1)N=C(N(C2=O)C3=CC=CC=C3C)CN4C=NC5=C(N=CN=C54)N
Procedure, shortened: as §1

[4] = compound: Cc1sc2c(c1C)C(c1ccc(Cl)cc1)=N[C@@H](CC(=O)OC(C)(C)C)c1nnc(C)n1-2
Procedure, shortened: as §1

[5] = compound: c1ccc([C@@H]2C[C@H]2NC2CCNCC2)cc1
Procedure, shortened: as §1

Measured: log2 fold change

LIN7A (UniProt O14910)
inactive: [1] 0.027 | [2] 0.021 | [3] 0.117 | [4] 0.016 | [5] 0.055

LMAN2L isoform 2 (UniProt Q9H0V9)
inactive: [1] 0.016 | [2] 0.031 | [3] -0.024 | [4] -0.011 | [5] -0.003

KXD1 (UniProt Q9BQD3)
inactive: [1] -0.178 | [2] 0.079 | [3] 0.042 | [4] -0.079 | [5] 0.034

KTI12 (UniProt Q96EK9)
inactive: [1] -0.111 | [2] -0.16 | [3] -0.043 | [4] -0.016 | [5] -0.065

LAMTOR1 (UniProt Q6IAA8)
inactive: [1] 0.101 | [2] 0.066 | [3] 0.014 | [4] -0.096 | [5] -0.042

LDLR (UniProt P01130)
inactive: [1] -0.037 | [2] 0.014 | [3] 0.037 | [4] 0.022 | [5] 0.062

LRRC20 (UniProt Q8TCA0)
inactive: [1] 0.063 | [2] 0.156 | [3] 0.163 | [4] -0.128 | [5] -0.08

LCP1 (UniProt P13796)
inactive: [1] -0.008 | [2] -0.006 | [3] 0.007 | [4] 0.01 | [5] 0.039

LRPAP1 (UniProt P30533)
inactive: [1] 0.01 | [2] -0.026 | [3] -0.016 | [4] 0.034 | [5] 0.014

LEPROTL1 isoform 2 (UniProt O95214)
inactive: [1] 0.084 | [2] 0.043 | [3] -0.058 | [4] -0.01 | [5] -0.046

LAP3 (UniProt P28838)
inactive: [1] 0.018 | [2] 0.016 | [3] 0.019 | [4] -0.028 | [5] 0.011

LCMT1 (UniProt Q9UIC8)
inactive: [1] -0.061 | [2] 0.064 | [3] 0.005 | [4] -0.032 | [5] -0.049

KYNU (UniProt Q16719)
inactive: [1] -0.016 | [2] -0.016 | [3] 0.04 | [4] -0.014 | [5] 0.026

LMAN2 (UniProt Q12907)
inactive: [1] 0.007 | [2] 0.024 | [3] 0.014 | [4] -0.069 | [5] -0.004

LRRC4B (UniProt Q9NT99)
inactive: [1] 0.062 | [2] 0.136 | [3] -0.06 | [4] 0.037 | [5] 0.021

LAMP2 isoform 2 (UniProt P13473)
inactive: [1] 0.051 | [2] -0.015 | [3] 0.04 | [4] 0.052 | [5] 0.007

LIN7C (UniProt Q9NUP9)
inactive: [1] 0.016 | [2] 0.019 | [3] -0.04 | [4] 0.005 | [5] 0.002

LIN28B (UniProt Q6ZN17)
inactive: [1] 0.02 | [2] -0.095 | [3] -0.17 | [4] 0.096 | [5] -0.003

LIMS1 isoform 3 (UniProt P48059)
inactive: [1] 0.007 | [2] -0.007 | [3] 0.006 | [4] -0.008 | [5] 0.046

LRRC57 (UniProt Q8N9N7)
inactive: [1] -0.029 | [2] 0.07 | [3] 0.064 | [4] -0.01 | [5] 0.003

LACTB (UniProt P83111)
inactive: [1] 0.029 | [2] -0.056 | [3] 0.065 | [4] 0.132 | [5] 0

LAMTOR3 (UniProt Q9UHA4)
inactive: [1] 0.068 | [2] 0.084 | [3] 0.074 | [4] -0.062 | [5] -0.063

LGALS8 isoform 2 (UniProt O00214)
inactive: [1] -0.032 | [2] 0.011 | [3] -0.166 | [4] -0.022 | [5] -0.12

KTN1 (UniProt Q86UP2)
inactive: [1] 0.005 | [2] -0.012 | [3] 0.019 | [4] 0.036 | [5] 0.001

LAMTOR4 (UniProt Q0VGL1)
inactive: [1] 0.056 | [2] -0.001 | [3] 0.01 | [4] -0.028 | [5] -0.064

LGALS1 (UniProt P09382)
inactive: [1] -0.009 | [2] 0.072 | [3] 0.031 | [4] -0.122 | [5] -0.026

LPIN3 isoform 2 (UniProt Q9BQK8)
inactive: [1] -0.047 | [2] 0.066 | [3] 0.075 | [4] -0.138 | [5] -0.044

LMAN1 (UniProt P49257)
inactive: [1] 0.002 | [2] -0.003 | [3] 0.019 | [4] 0 | [5] -0.003

LRBA (UniProt P50851)
inactive: [1] -0.016 | [2] 0.05 | [3] 0.088 | [4] 0 | [5] -0.023

Two records drawn at random from the list so far:
LRBA (UniProt P50851)
inactive: [1] -0.016 | [2] 0.05 | [3] 0.088 | [4] 0 | [5] -0.023

LDLR (UniProt P01130)
inactive: [1] -0.037 | [2] 0.014 | [3] 0.037 | [4] 0.022 | [5] 0.062
